Laboratory results reported in patent US8163929B2, “Dihydropyridone amides as P2X7 modulators” (Roche Palo Alto LLC, priority 2008, dated 2012).
Structures were worked out from names or drawings and are uncertain.

Chains of the proteins cited; added tags and fusions are not shown.
UniProt Q99572, whole entry: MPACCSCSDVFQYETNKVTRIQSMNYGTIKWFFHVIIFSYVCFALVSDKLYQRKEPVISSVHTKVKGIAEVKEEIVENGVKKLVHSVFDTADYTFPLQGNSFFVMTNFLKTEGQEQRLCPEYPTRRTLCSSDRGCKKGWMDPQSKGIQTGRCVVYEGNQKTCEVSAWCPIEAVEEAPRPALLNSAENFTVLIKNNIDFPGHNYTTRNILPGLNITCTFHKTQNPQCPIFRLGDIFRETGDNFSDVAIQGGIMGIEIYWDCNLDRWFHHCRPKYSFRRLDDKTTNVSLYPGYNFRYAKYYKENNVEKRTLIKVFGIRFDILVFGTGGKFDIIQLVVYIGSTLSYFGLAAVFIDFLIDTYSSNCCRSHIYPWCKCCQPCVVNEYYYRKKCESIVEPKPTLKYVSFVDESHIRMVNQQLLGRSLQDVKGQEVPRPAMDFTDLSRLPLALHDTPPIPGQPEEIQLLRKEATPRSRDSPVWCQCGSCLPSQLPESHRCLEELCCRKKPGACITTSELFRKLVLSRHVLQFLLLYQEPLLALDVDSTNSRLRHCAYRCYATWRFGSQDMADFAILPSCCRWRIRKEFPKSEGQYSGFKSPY

Target: P2X7 (UniProt Q99572)
Assay: P2X7 activity of Table 1
Details: pIC50 values for P2X7

O=C1C[C@@H](c2ccc(F)cc2)C(C(=O)Nc2cc(-c3cc[nH]n3)ccc2C(F)(F)F)=CN1
pKi: 7.173
